In PMC7179445 (Molecules, 2020):

Assay: general procedure: solution-phase peptide synthesis; ethyl chloroformate / N-methylmorpholine (mixed anhydride)
Settings: coupling step
In the case of “N^α-Dipicolinoyl-bis[L-Phe-L-ILe-L-ILe-methyl ester]”, the step yield is reported as 70%.
With “N^α-Dipicolinoyl-bis[L-ILe-L-L-Phe-ILe-methyl ester]” the step yield was 73%.

Same assay, conditions: cyclisation step
In the case of “Cyclo-(N^α-dipicolinoyl)-bis-[(L-ILe-L-ILe-L-Phe)-L-Lys methyl ester]”, the cyclisation yield is reported as 82%.
For “Cyclo-(N^α-dipicolinoyl)-bis-[(L-Phe-L-ILe-L-Ile)-L-Lys methyl ester]”, the cyclisation yield was 85%.
“Cyclo-(N^α-dipicolinoyl)-bis-[(L-ILe-L-Phe-L-Ile)-L-Lys methyl ester]” gave a cyclisation yield of 70%.

Same assay, conditions: late stage modification step
Substance “Cyclo-(N^α-dipicolinoyl)-bis-[(L-Phe-L-ILe-L-Ile)-L-Lys acid hydrazide]” has a step yield of 74%.
For “Cyclo-(N^α-dipicolinoyl)-bis-[(L-Phe-L-ILe-L-Ile)-L-Lys carboxylic acid]”, the step yield was 90%.
“Cyclo-(N^α-dipicolinoyl)-bis-[(L-Ile-L-Phe-L-Ile)-L-Lys acid hydrazide]” gave a step yield of 70%.
“Cyclo-(N^α-dipicolinoyl)-bis-[(L-Ile-L-Ile-L-Phe)-L-Lys acid hydrazide]” showed a step yield of 75%.
Work on “N^α-Dipicolinoyl-bis[L-ILe-L-Phe-L-ILe-carboxylic acid]” yielded a step yield of 82%.
In the case of “Cyclo-(N^α-dipicolinoyl)-bis-[(L-ILe-L-Ile-L-Phe)-L-Lys carboxylic acid]”, the step yield is reported as 70%.
“Cyclo-(N^α-dipicolinoyl)-bis-[(L-ILe-L-Phe-L-Ile)-L-Lys carboxylic acid]” gave a step yield of 65%.
For “N^α-Dipicolinoyl-bis[L-Phe-L-ILe-L-ILe-carboxylic acid]”, the step yield was 66%.
